# Results as given in the supplement of paper PMC8728848.
# Some of the results follow.
# B1: CM2 (Cordyceps militaris) (protein)
# chain: MEIAEQNVGKSCAIVNLIPPKEGSNIWTAKQVTIARNLPPNRGTGRHQIDWSFGPVKVTGYVDTTNWEIGVTVSIMGIDLGTVYGNLRDGVVLNVDLFLAKGQVRFYLKNGNEVWVHLSVEIRFDGKFEGDYKIITV
# Assays:
# Experiment in all cases: glycan array binding signal (z-score within array); higher = stronger binding
# Settings in all cases: glycan notation: IUPAC condensed, linker removed
# Fuc(a1-3)GlcNAc = target: Fuc(a1-3)GlcNAc
# In short: (§1)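 The binding signal is a Z-score computed within each array and averaged over linkers. Arrays of the same protein sequence at different concentrations or buffers were also averaged together. Data originate from 3228 arrays in the Consortium for Functional Glycomics database, kept only where the protein sequence was available.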
# [1] = target: Fuc(a1-3)[Gal(b1-4)]Glc6S
# In short: as §1
# [2] = target: Fuc(a1-3)[Gal(b1-4)]GlcNAc
# In short: as §1
# [3] = target: Fuc(a1-3)[Gal(b1-4)]GlcNAc(b1-2)Man
# In short: as §1
# [4] = target: Fuc(a1-3)[Gal(b1-4)]GlcNAc(b1-2)Man(a1-3)[Fuc(a1-3)[Gal(b1-4)]GlcNAc(b1-2)Man(a1-6)]Man(b1-4)GlcNAc(b1-4)GlcNAc
# In short: as §1
# [5] = target: Fuc(a1-3)[Gal(b1-4)]GlcNAc(b1-2)Man(a1-3)[Fuc(a1-3)[Gal(b1-4)]GlcNAc(b1-2)Man(a1-6)]Man(b1-4)GlcNAc(b1-4)[Fuc(a1-6)]GlcNAc
# In short: as §1
# [6] = target: Fuc(a1-3)[Gal(b1-4)]GlcNAc(b1-3)Gal(b1-3)[Fuc(a1-4)]GlcNAc
# In short: as §1
# [7] = target: Fuc(a1-3)[Gal(b1-4)]GlcNAc(b1-3)Gal(b1-4)[Fuc(a1-3)]GlcNAc
# In short: as §1
# [8] = target: Fuc(a1-3)[Gal(b1-4)]GlcNAc(b1-3)Gal(b1-4)[Fuc(a1-3)]GlcNAc(b1-3)Gal(b1-4)[Fuc(a1-3)]GlcNAc
# In short: as §1
# [9] = target: Fuc(a1-3)[Gal(b1-4)]GlcNAc(b1-3)GalNAc
# In short: as §1
# [10] = target: Fuc(a1-3)[Gal(b1-4)]GlcNAc(b1-6)GalNAc
# In short: as §1
# [11] = target: Fuc(a1-3)[Gal(b1-4)]GlcNAc(b1-6)[Gal(b1-3)GlcNAc(b1-3)]Gal(b1-4)Glc
# In short: as §1
# [12] = target: Fuc(a1-3)[Gal(b1-4)]GlcNAc6S
# In short: as §1
# [13] = target: Fuc(a1-3)[Gal3S(b1-4)]Glc
# In short: as §1
# [14] = target: Fuc(a1-3)[Gal3S(b1-4)]GlcNAc
# In short: as §1
# [15] = target: Fuc(a1-3)[Gal3S(b1-4)]GlcNAc6S
# In short: as §1
# [16] = target: Fuc(a1-3)[GalNAc(b1-4)]GlcNAc
# In short: as §1
# [17] = target: Fuc(a1-3)[GalNAc(b1-4)]GlcNAc6S
# In short: as §1
# Fuc(a1-4)GlcNAc = target: Fuc(a1-4)GlcNAc
# In short: as §1
# Fuc(b1-3)GlcNAc = target: Fuc(b1-3)GlcNAc
# In short: as §1
# Gal(a1-2)Gal = target: Gal(a1-2)Gal
# In short: as §1
# Gal(a1-3)Gal = target: Gal(a1-3)Gal
# In short: as §1
# Gal(a1-3)Gal(b1-3)GlcNAc = target: Gal(a1-3)Gal(b1-3)GlcNAc
# In short: as §1
# [18] = target: Gal(a1-3)Gal(b1-3)GlcNAc(b1-2)Man
# In short: as §1
# [19] = target: Gal(a1-3)Gal(b1-3)GlcNAc(b1-2)Man(a1-3)[Gal(a1-3)Gal(b1-3)GlcNAc(b1-2)Man(a1-6)]Man(b1-4)GlcNAc(b1-4)GlcNAc
# In short: as §1
# [20] = target: Gal(a1-3)Gal(b1-3)GlcNAc(b1-3)GalNAc
# In short: as §1
# [21] = target: Gal(a1-3)Gal(b1-3)GlcNAc(b1-6)GalNAc
# In short: as §1
# [22] = target: Gal(a1-3)Gal(b1-3)[Fuc(a1-4)]GlcNAc(b1-2)Man(a1-3)[Gal(a1-3)Gal(b1-3)[Fuc(a1-4)]GlcNAc(b1-2)Man(a1-6)]Man(b1-4)GlcNAc(b1-4)GlcNAc
# In short: as §1
# Gal(a1-3)Gal(b1-4)Glc = target: Gal(a1-3)Gal(b1-4)Glc
# In short: as §1
# Gal(a1-3)Gal(b1-4)GlcNAc = target: Gal(a1-3)Gal(b1-4)GlcNAc
# In short: as §1
binder,measurement,setting,value
B1,glycan array binding signal (z-score),Fuc(a1-3)GlcNAc,-0.826
same,glycan array binding signal (z-score),[1],-1.94
same,glycan array binding signal (z-score),[2],0.057
same,glycan array binding signal (z-score),[3],-1.22
same,glycan array binding signal (z-score),[4],-1.48
same,glycan array binding signal (z-score),[5],1.05
same,glycan array binding signal (z-score),[6],0.702
same,glycan array binding signal (z-score),[7],-0.383
same,glycan array binding signal (z-score),[8],-0.193
same,glycan array binding signal (z-score),[9],-0.54
same,glycan array binding signal (z-score),[10],-0.695
same,glycan array binding signal (z-score),[11],-0.052
same,glycan array binding signal (z-score),[12],0.992
same,glycan array binding signal (z-score),[13],-0.569
same,glycan array binding signal (z-score),[14],-0.3
same,glycan array binding signal (z-score),[15],-1.04
same,glycan array binding signal (z-score),[16],0.407
same,glycan array binding signal (z-score),[17],-0.502
same,glycan array binding signal (z-score),Fuc(a1-4)GlcNAc,1.23
same,glycan array binding signal (z-score),Fuc(b1-3)GlcNAc,-1.33
same,glycan array binding signal (z-score),Gal(a1-2)Gal,-0.219
same,glycan array binding signal (z-score),Gal(a1-3)Gal,-0.048
same,glycan array binding signal (z-score),Gal(a1-3)Gal(b1-3)GlcNAc,0.474
same,glycan array binding signal (z-score),[18],-0.692
same,glycan array binding signal (z-score),[19],-0.635
same,glycan array binding signal (z-score),[20],-1.36
same,glycan array binding signal (z-score),[21],-0.74
same,glycan array binding signal (z-score),[22],1.32
same,glycan array binding signal (z-score),Gal(a1-3)Gal(b1-4)Glc,1.11
same,glycan array binding signal (z-score),Gal(a1-3)Gal(b1-4)GlcNAc,0.413

# Exported tab-delimited: entries from further up.
binder	measurement	setting	value
B1	glycan array binding signal (z-score)	[3]	-1.22
same	glycan array binding signal (z-score)	[4]	-1.48
same	glycan array binding signal (z-score)	[5]	1.05
same	glycan array binding signal (z-score)	[6]	0.702
same	glycan array binding signal (z-score)	[7]	-0.383
same	glycan array binding signal (z-score)	[8]	-0.193
same	glycan array binding signal (z-score)	[9]	-0.54
